The target in this series is p53 (murine wild-type) (mouse) (UniProt P02340). The series is described as follows: EMSA. Conditions: EMSA on 4% polyacrylamide gels with PAb 421, reticulocyte lysate p53 pre-exposed to OP 20 min at 30 or 37 C, binding buffer, protein translated in vitro, label: 32P.

Protein sequences, listed by entry. Tags and fused reporters are not part of them.
UniProt P02340, whole entry: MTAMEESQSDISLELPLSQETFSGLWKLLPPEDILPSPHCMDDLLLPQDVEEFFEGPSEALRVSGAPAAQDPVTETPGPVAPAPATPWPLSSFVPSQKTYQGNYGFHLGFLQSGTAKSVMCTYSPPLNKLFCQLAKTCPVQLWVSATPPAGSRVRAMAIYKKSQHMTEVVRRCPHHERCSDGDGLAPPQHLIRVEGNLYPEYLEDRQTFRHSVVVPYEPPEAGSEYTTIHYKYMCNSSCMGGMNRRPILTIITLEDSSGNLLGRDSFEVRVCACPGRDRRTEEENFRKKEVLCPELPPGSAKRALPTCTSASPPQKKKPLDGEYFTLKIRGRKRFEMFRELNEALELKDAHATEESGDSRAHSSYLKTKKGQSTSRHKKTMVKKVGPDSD

The exact form of at least one protein or probe is not confirmed. A weaker result is weaker than the reference pair of the same experiment. At least one verdict was read from the data and is not stated in words by the source.

With “GGGCATGTCCGGGCATGTCC (double strand) [p53 CON]”, the binding result reads like this: (increasing 1,10-phenanthroline (up to mM), 20 min at 37 C, PAb 421, DNA binding inhibited) “binds more weakly”; (no 1,10-phenanthroline, PAb 421 (supershift)) “binds”.

The record behind these values is PMC2033583, “Temperature sensitivity for conformation is an intrinsic property of wild-type p53”.
